Assay results as given in US20130237684A1.
Results are given in words; binding and its absence hold for the method and conditions named. Some binding calls cover weakened binding; strength is not graded here.

Chains of the proteins cited; added tags and fusions are not shown. Lines headed by an entry give the natural chain unless they say otherwise; changes in a name come on top.
UniProt P02751: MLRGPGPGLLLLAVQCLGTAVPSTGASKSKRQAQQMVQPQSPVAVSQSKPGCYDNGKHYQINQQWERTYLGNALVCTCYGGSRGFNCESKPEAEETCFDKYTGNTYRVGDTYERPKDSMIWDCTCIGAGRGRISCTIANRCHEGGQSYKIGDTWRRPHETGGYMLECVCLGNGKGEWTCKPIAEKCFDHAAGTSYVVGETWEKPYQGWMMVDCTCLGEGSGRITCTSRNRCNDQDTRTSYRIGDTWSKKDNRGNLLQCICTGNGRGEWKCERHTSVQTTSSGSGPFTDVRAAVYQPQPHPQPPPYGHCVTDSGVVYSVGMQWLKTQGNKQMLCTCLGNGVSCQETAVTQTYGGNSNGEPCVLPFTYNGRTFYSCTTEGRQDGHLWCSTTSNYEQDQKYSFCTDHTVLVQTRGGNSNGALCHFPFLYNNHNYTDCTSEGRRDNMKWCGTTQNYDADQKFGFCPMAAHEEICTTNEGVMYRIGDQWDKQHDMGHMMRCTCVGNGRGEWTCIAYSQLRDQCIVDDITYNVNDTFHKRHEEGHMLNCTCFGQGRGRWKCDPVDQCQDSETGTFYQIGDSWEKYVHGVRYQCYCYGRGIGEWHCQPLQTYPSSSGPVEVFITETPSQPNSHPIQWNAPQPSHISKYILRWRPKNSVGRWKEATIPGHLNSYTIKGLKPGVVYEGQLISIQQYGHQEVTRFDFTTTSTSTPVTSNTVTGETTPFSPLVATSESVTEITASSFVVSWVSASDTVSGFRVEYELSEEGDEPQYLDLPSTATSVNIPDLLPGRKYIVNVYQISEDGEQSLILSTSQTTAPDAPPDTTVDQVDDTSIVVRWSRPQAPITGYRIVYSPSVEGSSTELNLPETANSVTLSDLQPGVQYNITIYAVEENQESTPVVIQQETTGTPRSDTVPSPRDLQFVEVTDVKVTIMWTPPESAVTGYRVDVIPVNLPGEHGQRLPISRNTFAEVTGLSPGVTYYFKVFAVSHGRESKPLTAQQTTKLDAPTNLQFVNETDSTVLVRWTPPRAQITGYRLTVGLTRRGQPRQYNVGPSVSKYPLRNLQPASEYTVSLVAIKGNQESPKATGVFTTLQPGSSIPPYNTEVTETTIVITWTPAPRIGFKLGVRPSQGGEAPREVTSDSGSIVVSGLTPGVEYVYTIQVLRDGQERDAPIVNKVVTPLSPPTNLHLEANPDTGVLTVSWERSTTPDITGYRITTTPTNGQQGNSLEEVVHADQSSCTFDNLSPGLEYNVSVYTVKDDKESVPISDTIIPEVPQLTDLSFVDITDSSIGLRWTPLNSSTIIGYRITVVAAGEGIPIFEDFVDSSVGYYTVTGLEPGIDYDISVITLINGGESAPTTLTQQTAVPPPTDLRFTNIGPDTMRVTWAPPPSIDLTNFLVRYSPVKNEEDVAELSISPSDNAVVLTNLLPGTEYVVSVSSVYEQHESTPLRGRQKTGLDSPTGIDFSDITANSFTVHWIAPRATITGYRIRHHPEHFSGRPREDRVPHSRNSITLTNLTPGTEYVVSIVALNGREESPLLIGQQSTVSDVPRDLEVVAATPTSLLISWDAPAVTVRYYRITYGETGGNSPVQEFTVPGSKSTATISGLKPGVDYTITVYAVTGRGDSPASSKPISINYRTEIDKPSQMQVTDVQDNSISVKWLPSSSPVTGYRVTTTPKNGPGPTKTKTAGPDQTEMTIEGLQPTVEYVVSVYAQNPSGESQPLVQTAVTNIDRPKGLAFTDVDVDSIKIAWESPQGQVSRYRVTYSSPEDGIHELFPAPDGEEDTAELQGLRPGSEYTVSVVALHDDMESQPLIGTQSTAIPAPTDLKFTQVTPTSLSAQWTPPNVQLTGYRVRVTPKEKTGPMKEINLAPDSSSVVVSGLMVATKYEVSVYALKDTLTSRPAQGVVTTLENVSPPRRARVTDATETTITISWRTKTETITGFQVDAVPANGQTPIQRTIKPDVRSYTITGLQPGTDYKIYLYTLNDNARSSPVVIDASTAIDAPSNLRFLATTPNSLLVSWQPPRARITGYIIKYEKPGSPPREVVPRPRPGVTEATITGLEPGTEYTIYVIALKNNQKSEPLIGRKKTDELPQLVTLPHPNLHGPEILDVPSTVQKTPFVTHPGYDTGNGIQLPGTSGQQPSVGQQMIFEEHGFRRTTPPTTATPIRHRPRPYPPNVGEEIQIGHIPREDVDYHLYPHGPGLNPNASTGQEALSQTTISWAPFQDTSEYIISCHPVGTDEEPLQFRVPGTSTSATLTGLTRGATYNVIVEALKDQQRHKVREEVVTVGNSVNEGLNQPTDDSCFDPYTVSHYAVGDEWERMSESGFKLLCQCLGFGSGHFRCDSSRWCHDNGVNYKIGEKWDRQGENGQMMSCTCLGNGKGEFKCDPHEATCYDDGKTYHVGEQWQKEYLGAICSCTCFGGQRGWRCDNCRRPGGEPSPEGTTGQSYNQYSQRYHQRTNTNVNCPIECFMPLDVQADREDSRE

Assays:
[1] = biological target: Aga2-C-FN3 (residues 43-94)-V5-His fusion protein displayed on yeast (human); assay: flow cytometry of mated yeast: surface C-FN3 by anti-V5/FITC, captured secreted N-FN3 by anti-FLAG/PE
[2] = biological target: Aga2-C-FN3 (residues 43-94)-V5-His fusion protein displayed on yeast (human); assay: yeast surface display, flow cytometry with anti-FLAG (PE) and anti-V5 (FITC)
[3] = biological target: LexA-C terminal fragment of FNfn10 (DEFG strands) fusion protein, wild-type FG loop (human) (UniProt P02751); assay: yeast two-hybrid
[4] = biological target: LexA-C terminal fragment of monobody fusion protein with the FG loop of monobody pYT4699 (human); assay: yeast two-hybrid
[5] = biological target: LexA-C terminal fragment of monobody fusion protein with the FG loop of monobody pYT0319 (human); assay: yeast two-hybrid
[6] = biological target: LexA-C terminal fragment of FNfn10 (DEFG strands) fusion protein, wild-type FG loop (human) (UniProt P02751); assay: yeast two-hybrid, β-galactosidase agarose overlay of mated strains
[7] = biological target: LexA-C terminal fragment of monobody fusion protein with the FG loop of monobody pYT4699 (human); assay: as above
[8] = biological target: LexA-C terminal fragment of monobody fusion protein with the FG loop of monobody pYT0319 (human); assay: as above
[9] = biological target: LexA-C terminal fragment of FNfn10 (DEFG strands) fusion protein, wild-type FG loop (human) (UniProt P02751); assay: yeast two-hybrid, β-galactosidase agarose overlay
[10] = biological target: LexA-C terminal fragment of monobody fusion protein with the FG loop of monobody pYT4699 (human); assay: yeast two-hybrid, β-galactosidase agarose overlay
[11] = biological target: LexA-C terminal fragment of monobody fusion protein with the FG loop of monobody pYT0319 (human); assay: yeast two-hybrid, β-galactosidase agarose overlay

binding [1] | binding [2] | binding [3] | binding [4] | binding [5] | binding [6] | binding [7] | binding [8] | binding [9] | binding [10] | binding [11] | Substance
binds | binds |  |  |  |  |  |  |  |  |  | N-FN3 (residues 1-42) followed by the FLAG tag, secreted from yeast (from UniProt P02751 1538-1579)
 |  | binds | binds | binds | binds | binds | binds | binds | binds | binds | FLAG tag-N terminal fragment of FNfn10 (ABC strands)-NLS-B42 fusion protein (from UniProt P02751 1538-1579)
